# Literature values, collected in US20060193832A1, “Use of the sodium iodine symporter to effect uptake of iodine” (priority 2005, published 2006).
# For at least one compound, name, drawing or mass did not settle the structure.
# Conditions: cited from earlier work
structure (smiles),measurement,value
"[O]=[Re](=[O])(=[O])[O-] [^188ReO4, Perrhenate]",effective radius,8.84 mm
same,energy of emitted particle,2.12 Mev
